These are yes or no findings as the source states them, for the method shown.
Columns and labels:
Test in all cases: ELISA: growth factor coated, Fg fragment in solution, A450 (methods analogous to Example 3)
PDGF-CC = target: PDGF-CC
BMP-7 = target: BMP-7
IGF-I = target: IGF-I
FGF-1 = target: FGF-1
IGFBP-1 = target: IGFBP-1
VEGF-A121 = target: VEGF-A121
NGF = target: NGF

Measured: binding

B1: Fg β1-66 (protein)
fibrinogen Bβ chain fragment: QGVNDNEEGFFSARGHRPLDKKREEAPSLRPAPPPISGGGYRARPAKAAATQKKVERKAPDAGGCG
no binding: all assays above

B2: Fg β15-66 (protein)
chain: GSNQEQVSPLGHRPLDKKREEAPSLRPAPPPISGGGYRARPAKAAATQKKVERKAPDAGGCGHHHHHH
no binding: all assays above

— US20140011978A1
